Reference: publication doi:10.1101/779520
Results are given in words; binding and its absence hold for the method and conditions named. Binding seen in cells or lysates may run through a third protein. A result given as binding can be weak or reduced; the word gives no strength.

Molecular target: HA-tagged full-length otoferlin (mCherry-P2A-mOtof-HA) (mouse)
Test: pull-down

binding: binds
B1: calbindin-D28k (protein, UniProt P12658 1-261)
chain: MAESHLQSSLITASQFFEIWLHFDADGSGYLEGKELQNLIQELLQARKKAGLELSPEMKSFVDQYGQRDDGKIGIVELAHVLPTEENFLLLFRCQQLKSCEEFMKTWRKYDTDHSGFIETEELKNFLKDLLEKANKTVDDTKLAEYTDLMLKLFDSNNDGKLELTEMARLLPVQENFLLKFQGIKMCGKEFNKAFELYDQDGNGYIDENELDALLKDLCEKNKQELDINNITTYKKNIMALSDGGKLYRTDLALILSAGDN
